# Results as given in PubChem BioAssay AID1487 (National Center for Advancing Translational Sciences (NCATS), 2009).
# “And” between values parts separate entries of the source, which are not always exact repeats. Equal values may be shown once. The list shows a part of the results. Shown are side measurements of this screen, not its main read-out; they come without a call. Most of these compounds were active or inconclusive in the main read-out, so they are no random draw. Words in brackets tell the shape of the fitted curve; partial curves, single points and poor fits give uncertain potencies.
# Experiment: qHTS Assay for Modulators of Lamin A Splicing
# Conditions: HeLa LMNA splicing GFP/RFP minigene ratio, 48 h
# Outline: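 Read-out is the ratio of GFP to DsRed2 object intensity, acquired by 488 nm laser-scanning cytometry on HeLa lamin A-EGFP minigene reporter cells. Compound incubation 48 hrs at 37 °C in Opti-MEM with 2% FBS; DMSO 0.5% final.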
# [1] = measured here: RFP viability control channel
# [2] = measured here: GFP splicing reporter channel
Structure (SMILES),AC50 [1],AC50 [2]
CCc1nnc(NC(=O)C2c3ccccc3Oc3ccccc32)s1,"11.2 µM [rising, partial curve]",–
Cc1cc(C)n(Cc2ccc(C(=O)Nc3cccc(Br)c3)o2)n1,"11.2 µM [rising, single point]","7.94 µM [rising, partial curve, poor fit]"
Cc1nn(Cc2ccc(Cl)c(Cl)c2)c(C)c1NC(=O)c1cc(CC(C)C)on1,"12.6 µM [rising, partial curve, poor fit]",–
CCCC(c1nnnn1CCC(C)C)N1CCC(C(N)=O)CC1 (configuration not stated),"0.708 µM [falling, single point]","15.8 µM [falling, single point]"
Cc1cc(C(=O)CSc2nnnn2C)c(C)n1-c1cccc(F)c1,"35.5 µM [rising, single point]","17.8 µM [rising, partial curve]"
Cc1cccc(CN2C(=O)c3ccccc3Sc3ccc(C(=O)NC4CCCCC4)cc32)c1,"35.5 µM [rising, single point]",–
C=CCn1c(-c2csc(-c3ccccc3)n2)n[nH]c1=S,"7.08 µM [rising, partial curve, poor fit]","5.01 µM [rising, full curve, poor fit]"
O=C(Nc1ccc2nc(SCC(=O)N3CCOCC3)sc2c1)c1cccc(Br)c1,–,"0.316 µM [falling, partial curve, poor fit]"
Cc1cccc(CNC(=O)C2CCC(CNS(=O)(=O)c3ccc4c(c3)CCCC(=O)N4)CC2)c1 (configuration not stated),–,"15.8 µM [falling, partial curve, poor fit]"
CCc1nc(N2CCN(C(=O)c3ccccc3)CC2)c(C#N)c2c1COC(C)(C)C2,"31.6 µM [rising, single point]",–
O=C(O)/C=C/C(=O)Nc1ccc(O)cc1,–,"20 µM [rising, partial curve, poor fit]"
Cc1ccccc1Cc1c(C)nc2c(C(=O)NCc3ccc4c(c3)OCO4)cnn2c1C,"5.62 µM [rising, single point]","5.62 µM [rising, single point]"
CN(CCC#N)C(=O)COC(=O)c1ccc2[nH]c3c(c2c1)CCCC3,–,"12.6 µM [falling, partial curve, poor fit]"
O=C(NCc1cccs1)Nc1cc(Cl)ccc1Cl,"5.01 µM [rising, full curve, poor fit]",–
CC(C(=O)c1ccc(-c2ccccc2)cc1)[n+]1ccccc1 (configuration not stated),"22.4 µM [rising, single point]","12.6 µM [rising, single point]"
CC1=NN(c2ccccc2)C(=O)/C1=C\c1ccc(Br)s1,"25.1 µM [rising, single point]",–
O=C(CSC1=NCCS1)Nc1ccc(S(=O)(=O)N2CCCCCC2)cc1,"7.08 µM [rising, partial curve, poor fit]",–
Fc1ccc(C2=CSC3=NCCN23)cc1,"0.00501 µM [rising, full curve, poor fit]","0.00708 µM [rising, full curve]"
COc1ccc(-c2cnc(C)o2)cc1S(=O)(=O)Nc1ccc(NC(C)=O)cc1,–,"0.02 µM [rising, full curve, poor fit]"
COC(=O)c1c(NC(=O)CN(c2ccc(C)c(C)c2)S(C)(=O)=O)sc2c1CCCC2,"8.91 µM [rising, partial curve, poor fit]",–
O=C1CC(N2CCN(c3cccc(C(F)(F)F)c3)CC2)C(=O)N1c1ccccc1F (configuration not stated),–,"12.6 µM [rising, partial curve]"
CC(C)=CC(=O)Nc1c(C)cc(C)cc1Cl,"0.2 µM [rising, full curve, poor fit]","0.398 µM [rising, full curve]"
COc1ccc(NS(=O)(=O)c2ccc(N3CCOCC3)c(NC(=O)c3cccc(F)c3)c2)cc1,"6.31 µM [rising, partial curve]","2.51 µM [rising, full curve]"
CO/N=C/C(=N\Nc1ccc(C)cc1)C(=O)c1ccc(OC)cc1,"3.55 µM [falling, partial curve]","35.5 µM [falling, single point]"
Cc1cccc(C)c1Nc1nnc(SCc2nc3ccccc3s2)s1,"11.2 µM [rising, partial curve]","20 µM [rising, single point]"
CCc1nnc(NC(=O)c2csc3c2CCC(C)C3)s1 (configuration not stated),"5.62 µM [falling, single point]","0.282 µM [rising, full curve, poor fit]"

# Record cards (already shown). Order of values: AC50 [1] | AC50 [2]
# Fc1ccc(C2=CSC3=NCCN23)cc1 is entered as 0.00501 µM [rising, full curve, poor fit] | 0.00708 µM [rising, full curve]
# CC1=NN(c2ccccc2)C(=O)/C1=C\c1ccc(Br)s1 is entered as 25.1 µM [rising, single point] | –

# Carrying on.

Structure (SMILES),AC50 [1],AC50 [2]
O=C(O)c1cc(NCc2c(F)cccc2Cl)ccc1N1CCOCC1,"11.2 µM [rising, single point]",–
Cc1ccc(NC2=Nc3ccccc3N3C2=Nc2c(c(C)nn2-c2ccccc2)C3c2ccc(O)c(O)c2)cc1 (configuration not stated),"0.0355 µM [falling, single point]","0.562 µM [falling, single point]"
COc1ccc(NC(=O)COC(=O)C23CC4CC(CC(Cl)(C4)C2)C3)c(OC)c1,"0.00316 µM [falling, full curve, poor fit]","0.00316 µM [falling, full curve, poor fit]"
COc1ccc(CN(C(=S)Nc2ccccc2)C2CC(=O)N(c3ccc(Cl)cc3)C2=O)cc1 (configuration not stated),"25.1 µM [falling, single point]","22.4 µM [falling, single point]"
COc1ccc(/C=C(\C#N)C(=O)NCCCn2ccnc2)cc1,"7.94 µM [rising, partial curve]","7.94 µM [rising, partial curve]"
S=C(NCc1ccco1)N/N=C/c1ccccc1Cl,"14.1 µM [rising, partial curve]",–
O=C(COC(=O)/C=C/c1ccc2c(c1)OCO2)Nc1ccccc1,–,"14.1 µM [falling, single point]"
COc1ccccc1NC(=O)c1ccc(-n2cccn2)c([N+](=O)[O-])c1,–,"35.5 µM [falling, single point]"
CC(C)c1cc(C(=O)N2CCN(C(c3ccccc3)c3ccccc3)CC2)no1,"17.8 µM [rising, single point]","11.2 µM [rising, partial curve]"
Cc1cc(C)cc(NC(=O)CSc2nc3c(c(=O)[nH]2)CN(Cc2ccc(F)cc2)CC3)c1,"35.5 µM [falling, single point]","20 µM [falling, partial curve, poor fit]"
CC(=O)c1ccc(N2CCN(S(=O)(=O)c3ccc(-c4coc(C)n4)cc3)CC2)cc1,"6.31 µM [rising, partial curve, poor fit]","3.98 µM [rising, partial curve, poor fit]"
N[C@@H](Cc1cc(I)c(Oc2ccc(O)c(I)c2)c(I)c1)C(=O)O,"2.82 µM [rising, partial curve, poor fit] and 11.2 µM [rising, partial curve]","35.5 µM [falling, single point] and 10 µM [rising, single point]"
Cc1ccccc1COC[C@H](CC(C)C)N1CCN(C(=O)c2cccc(C(F)(F)F)c2)CCC1=O,"14.1 µM [rising, partial curve]",–
CCOC(=O)Cc1csc(NC(=S)NC(=O)C(C)(C)C)n1,"31.6 µM [rising, single point]","14.1 µM [rising, single point]"
COc1cc(NC(=O)CN2CCN(c3ccc(F)cc3)CC2)cc(OC)c1,"2.51 µM [rising, partial curve, poor fit]","5.62 µM [rising, partial curve]"
O=c1c(F)cn(C2CCCO2)c(=O)n1Cc1ccc(Cl)cc1 (configuration not stated),–,"0.0224 µM [rising, full curve, poor fit]"
COc1ccc(C2(O)CCN(CCCCOc3ccccc3)CC2)cc1,"35.5 µM [rising, single point]",–
CN(C)c1ccnc(N(Cc2ccccc2)Cc2ccccc2)c1C#N,"12.6 µM [rising, single point]",–
CC1=CC2=NC(=O)/C(=C\c3ccc(-c4cccc(Cl)c4)o3)C(=N)N2O1,"3.55 µM [rising, full curve, poor fit]",–
O=C(NC1CCCC1)C(c1ccccc1F)N(C(=O)Cc1cccs1)c1ccc2c(c1)OCCO2 (configuration not stated),"12.6 µM [rising, partial curve, poor fit]",–
CCN1CCN(C(=S)Nc2cccc(C(F)(F)F)c2)CC1,"12.6 µM [rising, partial curve]","11.2 µM [rising, partial curve]"
O=C(/C=C/c1ccccc1Cl)N1CCC(c2nc3ccccc3o2)CC1,"0.0631 µM [falling, full curve, poor fit]","8.91 µM [falling, partial curve, poor fit]"
Nc1ncn([C@H]2O[C@@H](CO)[C@@H](O)[C@@H]2O)c(=O)n1,"0.447 µM [falling, full curve]","0.708 µM [falling, full curve]"
CC(C)c1onc(C(=O)N2CCN(Cc3ccccc3)CC2)c1[N+](=O)[O-],–,"0.00501 µM [falling, full curve, poor fit]"
Nc1nc2c(s1)CC(c1ccccc1)CC2 (configuration not stated),"31.6 µM [rising, single point]","25.1 µM [rising, single point]"
